Test results: publication PMC7035669
No constants are given. Whether binding was seen depends on the method and setting. In cells and extracts the contact can be indirect. Some results given as binding are weak or reduced against the parent protein; the word gives no strength.

Amino acid sequences for entries named in this document (tags omitted). A change or cut given only in a name is not applied to a line headed by its entry. Chains listed by the source or under a name are the forms on record and can include a tag or linker. Residues count along the entry.
UniProt P05556, residues 752-798: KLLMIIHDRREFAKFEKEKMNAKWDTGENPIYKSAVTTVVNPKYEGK
Full length human FLNA with C-terminal GFP, A1448V (P21333-1, form named): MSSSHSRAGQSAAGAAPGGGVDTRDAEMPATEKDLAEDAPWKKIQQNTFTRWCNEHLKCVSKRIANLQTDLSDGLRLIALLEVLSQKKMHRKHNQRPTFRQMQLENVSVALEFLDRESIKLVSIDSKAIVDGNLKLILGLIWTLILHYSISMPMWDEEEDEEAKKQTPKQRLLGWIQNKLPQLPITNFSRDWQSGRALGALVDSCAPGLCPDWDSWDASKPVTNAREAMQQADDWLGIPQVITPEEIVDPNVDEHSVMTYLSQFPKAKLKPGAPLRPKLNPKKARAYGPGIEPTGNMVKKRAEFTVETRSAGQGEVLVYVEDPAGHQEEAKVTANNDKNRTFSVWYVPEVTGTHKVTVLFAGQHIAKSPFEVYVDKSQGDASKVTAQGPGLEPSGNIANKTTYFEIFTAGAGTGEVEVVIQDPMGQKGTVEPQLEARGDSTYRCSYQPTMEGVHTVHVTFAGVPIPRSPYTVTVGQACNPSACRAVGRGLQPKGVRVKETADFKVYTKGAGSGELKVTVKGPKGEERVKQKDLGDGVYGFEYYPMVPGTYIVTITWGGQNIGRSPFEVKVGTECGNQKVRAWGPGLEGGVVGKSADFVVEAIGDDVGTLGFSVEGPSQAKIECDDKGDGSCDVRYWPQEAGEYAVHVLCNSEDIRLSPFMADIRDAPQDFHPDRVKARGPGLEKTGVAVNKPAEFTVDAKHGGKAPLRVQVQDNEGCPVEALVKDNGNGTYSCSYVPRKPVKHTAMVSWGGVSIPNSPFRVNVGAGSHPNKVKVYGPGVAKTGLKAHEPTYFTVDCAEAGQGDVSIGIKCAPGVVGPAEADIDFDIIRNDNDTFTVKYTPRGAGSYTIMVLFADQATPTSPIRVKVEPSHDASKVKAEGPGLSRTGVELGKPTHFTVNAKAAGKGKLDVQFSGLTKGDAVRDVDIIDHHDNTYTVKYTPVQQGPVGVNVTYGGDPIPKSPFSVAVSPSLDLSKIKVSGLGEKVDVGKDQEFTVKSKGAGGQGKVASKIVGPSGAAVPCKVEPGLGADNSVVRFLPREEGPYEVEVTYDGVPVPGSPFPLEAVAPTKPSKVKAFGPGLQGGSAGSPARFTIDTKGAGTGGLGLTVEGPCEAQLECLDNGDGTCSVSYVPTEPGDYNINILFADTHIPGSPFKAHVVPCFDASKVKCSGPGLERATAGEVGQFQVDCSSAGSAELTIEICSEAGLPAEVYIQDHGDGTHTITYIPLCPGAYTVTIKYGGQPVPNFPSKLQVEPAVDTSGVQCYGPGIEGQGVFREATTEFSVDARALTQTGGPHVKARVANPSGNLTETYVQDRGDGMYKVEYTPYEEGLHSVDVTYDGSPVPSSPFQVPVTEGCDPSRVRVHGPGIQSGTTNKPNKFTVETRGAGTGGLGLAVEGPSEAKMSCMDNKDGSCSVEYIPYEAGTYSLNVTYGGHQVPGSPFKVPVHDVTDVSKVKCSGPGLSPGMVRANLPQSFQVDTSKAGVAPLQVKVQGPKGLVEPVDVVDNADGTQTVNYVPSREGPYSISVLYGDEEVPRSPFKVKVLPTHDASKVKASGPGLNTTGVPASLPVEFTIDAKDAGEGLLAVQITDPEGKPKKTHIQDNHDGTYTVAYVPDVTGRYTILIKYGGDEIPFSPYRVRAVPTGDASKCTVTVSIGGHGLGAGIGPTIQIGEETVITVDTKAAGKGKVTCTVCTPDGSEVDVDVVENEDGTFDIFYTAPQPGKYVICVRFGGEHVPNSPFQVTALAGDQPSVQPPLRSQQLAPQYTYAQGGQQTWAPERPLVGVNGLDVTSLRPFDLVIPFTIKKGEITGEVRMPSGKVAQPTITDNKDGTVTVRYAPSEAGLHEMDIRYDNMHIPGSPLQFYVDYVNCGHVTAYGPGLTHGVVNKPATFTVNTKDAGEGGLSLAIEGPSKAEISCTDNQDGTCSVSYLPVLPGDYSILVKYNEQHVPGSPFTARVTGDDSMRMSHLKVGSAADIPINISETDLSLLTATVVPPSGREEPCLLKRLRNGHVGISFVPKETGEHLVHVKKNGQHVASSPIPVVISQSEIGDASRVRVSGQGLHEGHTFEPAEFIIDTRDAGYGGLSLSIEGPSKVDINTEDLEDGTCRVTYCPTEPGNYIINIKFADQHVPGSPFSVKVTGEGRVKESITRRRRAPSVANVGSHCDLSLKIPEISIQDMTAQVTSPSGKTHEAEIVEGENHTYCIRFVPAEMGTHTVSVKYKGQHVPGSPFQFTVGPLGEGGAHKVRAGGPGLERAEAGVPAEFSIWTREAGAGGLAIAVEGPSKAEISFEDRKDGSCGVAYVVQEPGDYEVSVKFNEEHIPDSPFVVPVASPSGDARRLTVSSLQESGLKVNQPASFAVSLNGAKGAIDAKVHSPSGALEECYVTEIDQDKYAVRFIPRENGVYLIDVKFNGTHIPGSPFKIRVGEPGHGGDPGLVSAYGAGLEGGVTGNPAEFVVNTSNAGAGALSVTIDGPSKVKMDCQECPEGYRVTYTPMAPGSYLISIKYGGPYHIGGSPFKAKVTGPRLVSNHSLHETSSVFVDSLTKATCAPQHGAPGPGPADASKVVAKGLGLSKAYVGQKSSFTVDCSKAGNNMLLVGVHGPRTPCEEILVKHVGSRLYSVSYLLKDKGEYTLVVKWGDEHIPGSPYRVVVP
Full length human FLNA with C-terminal GFP, C2160R (P21333-1, form named): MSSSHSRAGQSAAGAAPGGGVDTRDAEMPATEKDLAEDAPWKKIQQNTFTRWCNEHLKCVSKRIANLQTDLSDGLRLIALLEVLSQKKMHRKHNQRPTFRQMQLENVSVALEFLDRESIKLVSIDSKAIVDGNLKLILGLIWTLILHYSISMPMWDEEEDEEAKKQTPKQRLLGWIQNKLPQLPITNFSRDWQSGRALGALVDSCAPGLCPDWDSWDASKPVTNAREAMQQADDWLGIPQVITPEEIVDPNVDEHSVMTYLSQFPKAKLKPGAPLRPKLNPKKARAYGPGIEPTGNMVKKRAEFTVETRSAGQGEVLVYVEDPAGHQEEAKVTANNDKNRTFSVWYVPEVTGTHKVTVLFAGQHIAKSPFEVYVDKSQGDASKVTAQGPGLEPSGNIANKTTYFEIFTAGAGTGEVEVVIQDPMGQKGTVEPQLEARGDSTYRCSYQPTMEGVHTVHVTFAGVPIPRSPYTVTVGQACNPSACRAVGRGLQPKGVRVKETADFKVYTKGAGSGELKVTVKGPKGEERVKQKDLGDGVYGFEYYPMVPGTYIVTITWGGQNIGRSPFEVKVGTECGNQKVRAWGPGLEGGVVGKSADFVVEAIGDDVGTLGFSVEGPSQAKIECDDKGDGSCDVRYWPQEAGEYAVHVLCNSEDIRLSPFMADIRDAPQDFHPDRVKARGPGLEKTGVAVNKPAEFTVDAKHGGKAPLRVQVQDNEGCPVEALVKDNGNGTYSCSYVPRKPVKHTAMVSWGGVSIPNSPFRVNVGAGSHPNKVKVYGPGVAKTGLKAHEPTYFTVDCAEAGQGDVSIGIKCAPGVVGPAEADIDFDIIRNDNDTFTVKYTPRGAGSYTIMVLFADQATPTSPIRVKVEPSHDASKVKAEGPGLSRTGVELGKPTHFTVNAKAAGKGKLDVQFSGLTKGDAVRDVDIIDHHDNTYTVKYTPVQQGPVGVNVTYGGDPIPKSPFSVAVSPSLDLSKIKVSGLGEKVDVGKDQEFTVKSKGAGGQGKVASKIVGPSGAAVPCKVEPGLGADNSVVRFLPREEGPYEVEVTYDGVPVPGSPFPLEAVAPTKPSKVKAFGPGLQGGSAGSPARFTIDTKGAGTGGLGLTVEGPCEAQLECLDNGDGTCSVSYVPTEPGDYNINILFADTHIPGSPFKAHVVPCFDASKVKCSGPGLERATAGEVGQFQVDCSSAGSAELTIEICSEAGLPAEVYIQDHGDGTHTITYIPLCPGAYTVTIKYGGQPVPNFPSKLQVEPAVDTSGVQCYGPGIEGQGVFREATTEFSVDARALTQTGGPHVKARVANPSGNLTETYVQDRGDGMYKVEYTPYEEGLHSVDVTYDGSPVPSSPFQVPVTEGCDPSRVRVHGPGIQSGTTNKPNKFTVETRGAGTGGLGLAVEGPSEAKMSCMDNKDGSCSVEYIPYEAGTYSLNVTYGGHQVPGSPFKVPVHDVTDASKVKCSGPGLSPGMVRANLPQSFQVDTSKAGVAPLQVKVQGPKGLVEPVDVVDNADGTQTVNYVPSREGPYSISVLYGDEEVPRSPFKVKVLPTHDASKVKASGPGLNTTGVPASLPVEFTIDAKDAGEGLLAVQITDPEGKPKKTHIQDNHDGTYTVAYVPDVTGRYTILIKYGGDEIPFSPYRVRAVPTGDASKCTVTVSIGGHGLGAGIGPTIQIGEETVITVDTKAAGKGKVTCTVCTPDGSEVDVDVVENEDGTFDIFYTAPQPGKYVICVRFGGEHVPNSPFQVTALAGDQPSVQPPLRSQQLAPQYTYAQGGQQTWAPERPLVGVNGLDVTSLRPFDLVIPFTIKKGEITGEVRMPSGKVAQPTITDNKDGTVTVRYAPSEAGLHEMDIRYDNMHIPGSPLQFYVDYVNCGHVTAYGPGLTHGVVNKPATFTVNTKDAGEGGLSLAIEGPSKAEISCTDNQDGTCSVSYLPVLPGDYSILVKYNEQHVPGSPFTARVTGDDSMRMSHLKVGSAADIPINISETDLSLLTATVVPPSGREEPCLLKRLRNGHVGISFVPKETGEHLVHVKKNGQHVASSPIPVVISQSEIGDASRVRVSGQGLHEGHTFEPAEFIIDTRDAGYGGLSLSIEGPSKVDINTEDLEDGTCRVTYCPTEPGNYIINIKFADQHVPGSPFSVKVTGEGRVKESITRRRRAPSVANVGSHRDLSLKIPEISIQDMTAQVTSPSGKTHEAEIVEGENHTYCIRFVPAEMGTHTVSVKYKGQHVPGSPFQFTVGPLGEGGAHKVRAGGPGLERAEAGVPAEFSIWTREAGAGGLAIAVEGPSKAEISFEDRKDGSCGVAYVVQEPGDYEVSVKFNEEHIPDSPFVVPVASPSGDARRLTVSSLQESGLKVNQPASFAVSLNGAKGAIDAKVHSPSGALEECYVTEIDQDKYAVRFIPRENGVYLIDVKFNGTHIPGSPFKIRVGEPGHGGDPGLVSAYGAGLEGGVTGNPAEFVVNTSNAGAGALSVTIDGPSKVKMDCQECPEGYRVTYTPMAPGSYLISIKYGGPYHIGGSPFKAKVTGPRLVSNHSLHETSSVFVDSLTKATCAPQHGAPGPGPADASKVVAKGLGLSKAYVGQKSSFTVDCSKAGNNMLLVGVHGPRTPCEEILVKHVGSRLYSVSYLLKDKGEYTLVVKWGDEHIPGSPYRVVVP

The substances below were run against Integrin β1 (ITGβ1) cytoplasmic tail, wild type (UniProt P05556) (assay: pull-down; ITGβ1 tails immobilised on beads; lysates of CHO cells transfected with full length FLNA-GFP; buffer XT with 10 mM imidazole, beads washed three times; only the target purified).

Substance	binding
Full length human FLNA with C-terminal GFP, A1448V (from UniProt P21333-1 1-2647)	binds
Full length human FLNA with C-terminal GFP, C2160R (from UniProt P21333-1 1-2647)	binds
Full length human FLNA with C-terminal GFP, I2144E (from UniProt P21333-1 1-2647)	binds

The remaining lines, values ahead:

binding	Substance
binds	Full length human FLNA (Filamin A) with C-terminal GFP, wild type (from UniProt P21333-1 1-2647)
binds	Full length human FLNA with C-terminal GFP, G2236E (from UniProt P21333-1 1-2647)
